Assay results published in article PMC9970971.
Results are given in words; binding and its absence hold for the method and conditions named. Binding seen in cells or lysates may run through a third protein. Some results given as binding are weak or reduced against the parent protein; the word gives no strength.

Chains of the proteins cited; added tags and fusions are not shown.
UniProt Q15717: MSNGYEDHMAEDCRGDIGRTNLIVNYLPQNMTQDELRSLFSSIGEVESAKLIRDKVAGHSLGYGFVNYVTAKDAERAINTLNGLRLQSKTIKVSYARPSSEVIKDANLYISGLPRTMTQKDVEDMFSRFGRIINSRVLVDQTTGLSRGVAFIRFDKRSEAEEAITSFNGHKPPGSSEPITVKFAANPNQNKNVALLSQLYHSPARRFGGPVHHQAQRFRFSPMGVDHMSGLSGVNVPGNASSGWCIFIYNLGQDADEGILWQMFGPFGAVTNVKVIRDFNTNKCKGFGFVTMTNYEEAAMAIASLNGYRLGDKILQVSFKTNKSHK
UniProt Q9Y297: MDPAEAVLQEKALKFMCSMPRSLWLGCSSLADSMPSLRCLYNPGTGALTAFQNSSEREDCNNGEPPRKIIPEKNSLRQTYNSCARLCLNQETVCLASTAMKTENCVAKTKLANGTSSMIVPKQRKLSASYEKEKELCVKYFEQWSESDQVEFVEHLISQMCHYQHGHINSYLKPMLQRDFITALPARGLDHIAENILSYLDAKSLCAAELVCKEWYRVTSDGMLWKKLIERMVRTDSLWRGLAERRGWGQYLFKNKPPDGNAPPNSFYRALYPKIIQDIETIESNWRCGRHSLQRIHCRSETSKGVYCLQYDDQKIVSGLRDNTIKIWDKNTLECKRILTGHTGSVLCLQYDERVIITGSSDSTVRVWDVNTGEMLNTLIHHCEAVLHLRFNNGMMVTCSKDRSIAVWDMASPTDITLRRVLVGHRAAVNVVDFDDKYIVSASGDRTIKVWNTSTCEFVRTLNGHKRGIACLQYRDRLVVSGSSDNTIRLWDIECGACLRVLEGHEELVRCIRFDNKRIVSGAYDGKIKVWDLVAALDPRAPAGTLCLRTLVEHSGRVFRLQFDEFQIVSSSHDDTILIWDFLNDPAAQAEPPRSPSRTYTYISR

Molecular target: human antigen R (HuR) (human (endogenous in HCT116)) (UniProt Q15717)
Assay: co-IP; HCT116 cells stably transduced with control or GMDS-AS1 shRNA, transfected with MYC-β-TrCP plasmid for 48 h; lysates in co-IP buffer (0.5% Triton X-100, 20 mM HEPES, 150 mM NaCl, 12.5 mM glycerophosphate, 1.5 mM MgCl2, 2 mM EGTA); IP with control IgG, anti-HuR or anti-β-TrCP antibody overnight at 4 °C, protein A/G magnetic beads; immunoblot with anti-HuR and anti-β-TrCP

With “MYC-β-TrCP (beta-transducin repeat-containing protein) (from UniProt Q9Y297 1-605)” the binding was “binds”.
